The values below come from paper PMC7105138, “Modeling cancer genomic data in yeast reveals selection against ATM function during tumorigenesis” (PLoS Genetics, 2020).

These are yes or no findings as the source states them, for the method shown. Binding seen in cells or lysates may run through a third protein. Some results given as binding are weak or reduced against the parent protein; the word gives no strength.

Test [1] concerns the target T1, Mre11-E38K (S. cerevisiae) (UniProt P32829).
T1 sequence: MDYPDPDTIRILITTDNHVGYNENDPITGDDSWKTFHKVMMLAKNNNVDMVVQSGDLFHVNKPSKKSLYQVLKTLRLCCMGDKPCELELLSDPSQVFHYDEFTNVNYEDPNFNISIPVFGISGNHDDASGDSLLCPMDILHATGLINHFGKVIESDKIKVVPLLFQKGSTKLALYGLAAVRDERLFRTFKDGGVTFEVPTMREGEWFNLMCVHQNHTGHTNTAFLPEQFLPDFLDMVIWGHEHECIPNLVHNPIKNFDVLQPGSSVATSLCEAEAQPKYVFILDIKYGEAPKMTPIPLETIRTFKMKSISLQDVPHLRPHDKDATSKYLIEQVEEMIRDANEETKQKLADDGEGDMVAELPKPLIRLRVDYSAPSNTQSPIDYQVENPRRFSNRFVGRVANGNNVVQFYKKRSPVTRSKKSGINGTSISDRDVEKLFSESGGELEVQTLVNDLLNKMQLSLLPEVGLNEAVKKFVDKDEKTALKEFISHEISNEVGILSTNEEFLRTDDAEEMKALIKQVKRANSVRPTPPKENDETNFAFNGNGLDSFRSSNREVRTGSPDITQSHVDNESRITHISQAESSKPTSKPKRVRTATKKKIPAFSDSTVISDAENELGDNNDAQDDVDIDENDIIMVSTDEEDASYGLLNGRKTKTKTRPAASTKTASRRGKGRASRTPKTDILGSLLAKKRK
Kind of test: co-IP; immunoprecipitation from yeast cells with Rad50 or Mre11 antisera, western blot with Rad50 or Mre11 antisera; preimmune antibodies as negative controls. For orientation: A western blot detects proteins with antibodies after separation by electrophoresis.

Test [2] has as its target T2, Mre11 (S. cerevisiae (endogenous in W303)) (UniProt P32829).
T2 sequence: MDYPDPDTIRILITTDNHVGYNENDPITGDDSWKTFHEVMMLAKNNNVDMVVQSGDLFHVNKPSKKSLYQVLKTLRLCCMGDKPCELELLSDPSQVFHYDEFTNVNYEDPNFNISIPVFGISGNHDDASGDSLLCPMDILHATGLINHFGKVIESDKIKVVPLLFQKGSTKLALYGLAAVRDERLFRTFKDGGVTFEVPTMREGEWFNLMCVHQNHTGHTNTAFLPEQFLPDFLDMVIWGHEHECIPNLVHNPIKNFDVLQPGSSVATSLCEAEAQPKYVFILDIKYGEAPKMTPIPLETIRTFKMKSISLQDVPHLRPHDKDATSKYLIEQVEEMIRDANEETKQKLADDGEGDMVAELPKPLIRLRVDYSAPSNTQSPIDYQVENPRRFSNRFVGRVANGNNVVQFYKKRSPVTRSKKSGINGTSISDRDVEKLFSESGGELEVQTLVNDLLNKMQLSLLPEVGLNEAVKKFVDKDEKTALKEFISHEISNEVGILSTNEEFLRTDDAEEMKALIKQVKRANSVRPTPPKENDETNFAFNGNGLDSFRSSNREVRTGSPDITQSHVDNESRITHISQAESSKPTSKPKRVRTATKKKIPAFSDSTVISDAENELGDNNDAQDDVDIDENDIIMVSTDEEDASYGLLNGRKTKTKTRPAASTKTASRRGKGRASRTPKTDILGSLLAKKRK
The description is as above.

B1: Rad50 (protein, UniProt P12753 1-1312)
chain: MSAIYKLSIQGIRSFDSNDRETIEFGKPLTLIVGMNGSGKTTIIECLKYATTGDLPPNSKGGVFIHDPKITGEKDIRAQVKLAFTSANGLNMIVTRNIQLLMKKTTTTFKTLEGQLVAINNSGDRSTLSTRSLELDAQVPLYLGVPKAILEYVIFCHQEDSLWPLSEPSNLKKKFDEIFQAMKFTKALDNLKSIKKDMSVDIKLLKQSVEHLKLDKDRSKAMKLNIHQLQTKIDQYNEEVSEIESQLNEITEKSDKLFKSNQDFQKILSKVENLKNTKLSISDQVKRLSNSIDILDLSKPDLQNLLANFSKVLMDKNNQLRDLETDISSLKDRQSSLQSLSNSLIRRQGELEAGKETYEKNRNHLSSLKEAFQHKFQGLSNIENSDMAQVNHEMSQFKAFISQDLTDTIDQFAKDIQLKETNLSDLIKSITVDSQNLEYNKKDRSKLIHDSEELAEKLKSFKSLSTQDSLNHELENLKTYKEKLQSWESENIIPKLNQKIEEKNNEMIILENQIEKFQDRIMKTNQQADLYAKLGLIKKSINTKLDELQKITEKLQNDSRIRQVFPLTQEFQRADLEMDFQKLFINMQKNIAINNKKMHELDRRYTNALYNLNTIEKDLQDNQKSKEKVIQLLSENLPEDCTIDEYNDVLEETELSYKTALENLKMHQTTLEFNRKALEIAERDSCCYLCSRKFENESFKSKLLQELKTKTDANFEKTLKDTVQNEKEYLHSLRLLEKHIITLNSINEKIDNSQKCLEKAKEETKTSKSKLDELEVDSTKLKDEKELAESEIRPLIEKFTYLEKELKDLENSSKTISEELSIYNTSEDGIQTVDELRDQQRKMNDSLRELRKTISDLQMEKDEKVRENSRMINLIKEKELTVSEIESSLTQKQNIDDSIRSKRENINDIDSRVKELEARIISLKNKKDEAQSVLDKVKNERDIQVRNKQKTVADINRLIDRFQTIYNEVVDFEAKGFDELQTTIKELELNKAQMLELKEQLDLKSNEVNEEKRKLADSNNEEKNLKQNLELIELKSQLQHIESEISRLDVQNAEAERDKYQEESLRLRTRFEKLSSENAGKLGEMKQLQNQIDSLTHQLRTDYKDIEKNYHKEWVELQTRSFVTDDIDVYSKALDSAIMKYHGLKMQDINRIIDELWKRTYSGTDIDTIKIRSDEVSSTVKGKSYNYRVVMYKQDVELDMRGRCSAGQKVLASIIIRLALSETFGANCGVIALDEPTTNLDEENIESLAKSLHNIINMRRHQKNFQLIVITHDEKFLGHMNAAAFTDHFFKVKRDDRQKSQIEWVDINRVTY
Turning to B1, the binding result in test [1] and in test [2] was “binds” each time.
